# Laboratory results: article PMC4081100
# Protein sequences, listed by entry. Tags and fused reporters are not part of them. Residues count along the entry.
# UniProt Q9SCK6, 1-168: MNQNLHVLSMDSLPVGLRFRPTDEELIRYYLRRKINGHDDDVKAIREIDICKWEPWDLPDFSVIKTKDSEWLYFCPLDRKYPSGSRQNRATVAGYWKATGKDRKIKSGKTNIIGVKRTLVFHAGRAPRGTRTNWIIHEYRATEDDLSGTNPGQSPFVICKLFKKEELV
# The comparison behind a weaker result is the experiment's own reference, which may not be listed here. For some assays here: Tags and fusion partners may be left off the protein sequences shown. For some assays here: The exact form of at least one protein or probe is not confirmed. For some assays here: At least one verdict rests on a figure or table, not on a statement of the authors.
# Columns and labels:
# [1] = biological target: GST-NTL6(1-168) (Arabidopsis thaliana) (UniProt Q9SCK6); test: EMSA; conditions: EMSA with 75 pM 32P-labelled DNA; oligos annealed in 20 mM Tris-HCl pH 8.0, 20 mM MgCl2; recombinant protein; residues 1-168; protein details: GST; label: 32P
# [2] = biological target: T1, GST-ANAC092(1-176) (Arabidopsis thaliana) (UniProt Q9FKA0); test: EMSA; conditions: EMSA with 75 pM 32P-labelled DNA; oligos annealed in 20 mM Tris-HCl pH 8.0, 20 mM MgCl2; recombinant protein; residues 1-176; protein details: GST; label: 32P
# T1 sequence (looked up): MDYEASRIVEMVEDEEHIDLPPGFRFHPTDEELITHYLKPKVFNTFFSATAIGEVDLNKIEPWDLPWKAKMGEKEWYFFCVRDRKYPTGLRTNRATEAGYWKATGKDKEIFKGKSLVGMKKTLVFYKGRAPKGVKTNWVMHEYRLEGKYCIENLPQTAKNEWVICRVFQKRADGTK
Sequence,binding result [1],binding result [2]
CAGTCTTGCGTGTTGGAACACGCAACAGTC (double strand) [PalNACBS],binds more weakly,
GATCAGGTTCAGCTAAGTAACCGATCCAGG / GATCCCTGGATCGGTTACTTAGCTGAACCT [MYB90Synth (Synthetic promoter)],,binds more weakly
